Values from PubChem BioAssay AID743121 (NCATS, 2013)

Assay: 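Partners whose loss is lethal together with topoisomerase I blockade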 (primary screen)
System: MDA-MB-231 cells, a human breast cancer line
Reagents: single siRNA against human genes, 20 nM siRNA (0.8 pmol per well)
Time to read-out: 120 h (drug added 48 h after transfection, read 72 h later)
Challenge: camptothecin 20 nM (about EC30) for 72 h; vehicle 0.1% DMSO in parallel plates
Measured: 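CellTiter-Glo ATP signal, scaled to control siRNA as percent viability; sensitisation given as log2 of untreated divided by camptothecin-treated viability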
Reading the numbers: log2 vehicle/camptothecin viability: higher = stronger sensitisation to camptothecin
Hit rule: 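Each gene scored by redundant siRNA activity (RSA) over its individual siRNA ratios; a gene is called active at p < 0.001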
The whole screen tested about 26,000 reagents; shown is a part drawn at random. 167 of all reagents (0.63%) count as active. 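Calls are per gene from RSA p-values that are not deposited; an individual active-marked siRNA can sensitise only weakly.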 Entries without a mark were called inactive. The numbers tell different reagents against one gene apart. Not all columns of the deposit are shown.

PTPA (protein phosphatase 2 phosphatase activator) #1
- log2 vehicle/camptothecin viability: -0.57

PTPA (protein phosphatase 2 phosphatase activator) #2
- log2 vehicle/camptothecin viability: -0.385

PTPA (protein phosphatase 2 phosphatase activator) #3
- log2 vehicle/camptothecin viability: 0.265

PTPA (protein phosphatase 2 phosphatase activator) #4
- log2 vehicle/camptothecin viability: -0.301

AKR1E2 (aldo-keto reductase family 1 member E2) #1
- log2 vehicle/camptothecin viability: -0.122

AKR1E2 (aldo-keto reductase family 1 member E2) #2
- log2 vehicle/camptothecin viability: -0.14

AKR1E2 (aldo-keto reductase family 1 member E2) #3
- log2 vehicle/camptothecin viability: -0.235

AKR1E2 (aldo-keto reductase family 1 member E2) #4
- log2 vehicle/camptothecin viability: 0.139

GLDC (glycine decarboxylase) #1
- log2 vehicle/camptothecin viability: 0.0482

GLDC (glycine decarboxylase) #2
- log2 vehicle/camptothecin viability: 1.12

GLDC (glycine decarboxylase) #3
- log2 vehicle/camptothecin viability: -0.0125

GLDC (glycine decarboxylase) #4
- log2 vehicle/camptothecin viability: 0.0131

OR1J4 (olfactory receptor family 1 subfamily J member 4) #1
- log2 vehicle/camptothecin viability: 0.321

OR1J4 (olfactory receptor family 1 subfamily J member 4) #2
- log2 vehicle/camptothecin viability: 0.532

OR1J4 (olfactory receptor family 1 subfamily J member 4) #3
- log2 vehicle/camptothecin viability: 0.261

OR1J4 (olfactory receptor family 1 subfamily J member 4) #4
- log2 vehicle/camptothecin viability: -0.285

MDGA2 (MAM domain containing glycosylphosphatidylinositol anchor 2) #1
- log2 vehicle/camptothecin viability: -0.283

MDGA2 (MAM domain containing glycosylphosphatidylinositol anchor 2) #2
- log2 vehicle/camptothecin viability: -0.0975

MDGA2 (MAM domain containing glycosylphosphatidylinositol anchor 2) #3
- log2 vehicle/camptothecin viability: -0.19

RFPL4A (ret finger protein like 4A) #1
- log2 vehicle/camptothecin viability: -0.0872

RFPL4A (ret finger protein like 4A) #2
- log2 vehicle/camptothecin viability: -0.27

RFPL4A (ret finger protein like 4A) #3
- log2 vehicle/camptothecin viability: -0.0359

AP1S2 (adaptor related protein complex 1 subunit sigma 2) #1
- log2 vehicle/camptothecin viability: 0.0111

AP1S2 (adaptor related protein complex 1 subunit sigma 2) #2
- log2 vehicle/camptothecin viability: -0.34

AP1S2 (adaptor related protein complex 1 subunit sigma 2) #3
- log2 vehicle/camptothecin viability: -0.177

AP1S2 (adaptor related protein complex 1 subunit sigma 2) #4
- log2 vehicle/camptothecin viability: 0.0407

PLCB3 (phospholipase C beta 3) #1
- log2 vehicle/camptothecin viability: -0.411

PLCB3 (phospholipase C beta 3) #2
- log2 vehicle/camptothecin viability: -0.246

PLCB3 (phospholipase C beta 3) #3
- log2 vehicle/camptothecin viability: 0.503

PLCB3 (phospholipase C beta 3) #4
- log2 vehicle/camptothecin viability: -0.287

VIPR1 (vasoactive intestinal peptide receptor 1) #1
- log2 vehicle/camptothecin viability: 0.905

VIPR1 (vasoactive intestinal peptide receptor 1) #2
- log2 vehicle/camptothecin viability: -0.5

VIPR1 (vasoactive intestinal peptide receptor 1) #3
- log2 vehicle/camptothecin viability: 0.106

VIPR1 (vasoactive intestinal peptide receptor 1) #4
- log2 vehicle/camptothecin viability: -0.176

TP53 (tumor protein p53) #1
- log2 vehicle/camptothecin viability: -0.302

TP53 (tumor protein p53) #2
- log2 vehicle/camptothecin viability: 0.213

TP53 (tumor protein p53) #3
- log2 vehicle/camptothecin viability: 0.0624

TP53 (tumor protein p53) #4
- log2 vehicle/camptothecin viability: 0.245

As entered above:
For “log2 vehicle/camptothecin viability”, TP53 (tumor protein p53) #3 reads 0.0624
OR1J4 (olfactory receptor family 1 subfamily J member 4) #4, log2 vehicle/camptothecin viability = -0.285
VIPR1 (vasoactive intestinal peptide receptor 1) #3, log2 vehicle/camptothecin viability: 0.106
AKR1E2 (aldo-keto reductase family 1 member E2) #1, log2 vehicle/camptothecin viability = -0.122
For “log2 vehicle/camptothecin viability”, MDGA2 (MAM domain containing glycosylphosphatidylinositol anchor 2) #2 is entered as -0.0975
